# Test results from the supplement of paper PMC8728848.
# Some of the results follow.
# B1: Gal 10 (Homo sapiens), Q05315 (protein)
# chain: MSLLPVPYTEAASLSTGSTVTIKGRPLVCFLNEPYLQVDFHTEMKEESDIVFHFQVCFGRRVVMNSREYGAWKQQVESKNMPFQDGQEFELSISVLPDKYQVMVNGQSSYTFDHRIKPEAVKMVQVWRDISLTKFNVSYLKR
# Key:
# Test in all cases: glycan array binding signal (z-score within array); higher = stronger binding
# Conditions in all cases: glycan notation: IUPAC condensed, linker removed
# [1] = target: GlcNAc(a1-4)Gal(b1-4)GlcNAc(b1-3)Gal(b1-4)[Fuc(a1-3)]GlcNAc(b1-3)Gal(b1-4)[Fuc(a1-3)]GlcNAc
# Outline: (§1)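 Columns mapping to the same glycan were averaged after glycan names were converted to IUPAC-condensed notation. The data come from 3228 arrays in the Consortium for Functional Glycomics database, limited to those with an available protein sequence. Binding is reported as a within-array Z-score averaged across arrays of one protein sequence and across linkers.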
# [2] = target: GlcNAc(a1-6)Gal(b1-4)GlcNAc
# Outline: as §1
# [3] = target: GlcNAc(b1-2)Gal(b1-3)GalNAc
# Outline: as §1
# [4] = target: GlcNAc(b1-2)Man(a1-3)[GlcNAc(b1-2)Man(a1-6)]Man(b1-4)GlcNAc(b1-4)GlcNAc
# Outline: as §1
# [5] = target: GlcNAc(b1-2)Man(a1-3)[GlcNAc(b1-2)Man(a1-6)]Man(b1-4)GlcNAc(b1-4)[Fuc(a1-6)]GlcNAc
# Outline: as §1
# [6] = target: GlcNAc(b1-2)Man(a1-3)[GlcNAc(b1-4)][GlcNAc(b1-2)Man(a1-6)]Man(b1-4)GlcNAc(b1-4)GlcNAc
# Outline: as §1
# [7] = target: GlcNAc(b1-2)Man(a1-3)[GlcNAc(b1-4)][GlcNAc(b1-2)Man(a1-6)]Man(b1-4)GlcNAc(b1-4)[Fuc(a1-6)]GlcNAc
# Outline: as §1
# [8] = target: GlcNAc(b1-2)[GlcNAc(b1-4)]Man(a1-3)[GlcNAc(b1-2)Man(a1-6)]Man(b1-4)GlcNAc(b1-4)GlcNAc
# Outline: as §1
# [9] = target: GlcNAc(b1-2)[GlcNAc(b1-4)]Man(a1-3)[GlcNAc(b1-4)][GlcNAc(b1-2)Man(a1-6)]Man(b1-4)GlcNAc(b1-4)GlcNAc
# Outline: as §1
# [10] = target: GlcNAc(b1-2)[GlcNAc(b1-4)]Man(a1-3)[GlcNAc(b1-4)][GlcNAc(b1-2)[GlcNAc(b1-6)]Man(a1-6)]Man(b1-4)GlcNAc(b1-4)GlcNAc
# Outline: as §1
# [11] = target: GlcNAc(b1-2)[GlcNAc(b1-4)]Man(a1-3)[GlcNAc(b1-4)][GlcNAc(b1-2)[GlcNAc(b1-6)]Man(a1-6)]Man(b1-4)GlcNAc(b1-4)[Fuc(a1-6)]GlcNAc
# Outline: as §1
# [12] = target: GlcNAc(b1-2)[GlcNAc(b1-6)]Man(a1-6)[GlcNAc(b1-2)Man(a1-3)]Man(b1-4)GlcNAc(b1-4)GlcNAc
# Outline: as §1
# [13] = target: GlcNAc(b1-2)[GlcNAc(b1-6)]Man(a1-6)[GlcNAc(b1-2)Man(a1-3)]Man(b1-4)GlcNAc(b1-4)[Fuc(a1-6)]GlcNAc
# Outline: as §1
# [14] = target: GlcNAc(b1-2)[GlcNAc(b1-6)]Man(a1-6)[GlcNAc(b1-2)Man(a1-3)][GlcNAc(b1-4)]Man(b1-4)GlcNAc(b1-4)GlcNAc
# Outline: as §1
# [15] = target: GlcNAc(b1-2)[GlcNAc(b1-6)]Man(a1-6)[GlcNAc(b1-4)][GlcNAc(b1-2)Man(a1-3)]Man(b1-4)GlcNAc(b1-4)GlcNAc
# Outline: as §1
# GlcNAc(b1-3)Fuc = target: GlcNAc(b1-3)Fuc
# Outline: as §1
# GlcNAc(b1-3)Gal = target: GlcNAc(b1-3)Gal
# Outline: as §1
# [16] = target: GlcNAc(b1-3)Gal(b1-3)GalNAc
# Outline: as §1
# GlcNAc(b1-3)Gal(b1-4)Glc = target: GlcNAc(b1-3)Gal(b1-4)Glc
# Outline: as §1
# [17] = target: GlcNAc(b1-3)Gal(b1-4)GlcNAc
# Outline: as §1
# [18] = target: GlcNAc(b1-3)Gal(b1-4)GlcNAc(b1-2)Man(a1-3)[GlcNAc(b1-3)Gal(b1-4)GlcNAc(b1-2)Man(a1-6)]Man(b1-4)GlcNAc(b1-4)GlcNAc
# Outline: as §1
# [19] = target: GlcNAc(b1-3)Gal(b1-4)GlcNAc(b1-2)Man(a1-3)[GlcNAc(b1-3)Gal(b1-4)GlcNAc(b1-2)Man(a1-6)]Man(b1-4)GlcNAc(b1-4)[Fuc(a1-6)]GlcNAc
# Outline: as §1
binder,measurement,setting,value
B1,glycan array binding signal (z-score),[1],3.48
same,glycan array binding signal (z-score),[2],0.467
same,glycan array binding signal (z-score),[3],-0.514
same,glycan array binding signal (z-score),[4],0.373
same,glycan array binding signal (z-score),[5],1.22
same,glycan array binding signal (z-score),[6],-0.451
same,glycan array binding signal (z-score),[7],-0.581
same,glycan array binding signal (z-score),[8],0.408
same,glycan array binding signal (z-score),[9],0.078
same,glycan array binding signal (z-score),[10],-0.448
same,glycan array binding signal (z-score),[11],-0.92
same,glycan array binding signal (z-score),[12],-0.17
same,glycan array binding signal (z-score),[13],0.356
same,glycan array binding signal (z-score),[14],-0.253
same,glycan array binding signal (z-score),[15],-0.849
same,glycan array binding signal (z-score),GlcNAc(b1-3)Fuc,-0.781
same,glycan array binding signal (z-score),GlcNAc(b1-3)Gal,0.36
same,glycan array binding signal (z-score),[16],0.22
same,glycan array binding signal (z-score),GlcNAc(b1-3)Gal(b1-4)Glc,-0.313
same,glycan array binding signal (z-score),[17],-0.481
same,glycan array binding signal (z-score),[18],-0.263
same,glycan array binding signal (z-score),[19],-0.014

# Retrieved one by one from above, two records:
binder,measurement,setting,value
B1,glycan array binding signal (z-score),[14],-0.253
same,glycan array binding signal (z-score),[3],-0.514
